Experimental data as given in publication PMC4632290.
No constants are given. Whether binding was seen depends on the method and setting. Binding seen in cells or lysates may run through a third protein. Some binding calls cover weakened binding; strength is not graded here.

By UniProt entry, the sequences of proteins in these tests, tags left out.
UniProt P53805: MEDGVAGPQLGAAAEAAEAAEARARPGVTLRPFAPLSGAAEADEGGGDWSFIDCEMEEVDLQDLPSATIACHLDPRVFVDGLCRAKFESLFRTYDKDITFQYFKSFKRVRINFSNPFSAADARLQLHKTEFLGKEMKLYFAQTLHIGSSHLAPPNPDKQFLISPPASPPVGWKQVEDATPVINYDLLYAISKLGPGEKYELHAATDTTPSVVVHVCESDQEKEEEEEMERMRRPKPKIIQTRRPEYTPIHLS
UniProt P25963: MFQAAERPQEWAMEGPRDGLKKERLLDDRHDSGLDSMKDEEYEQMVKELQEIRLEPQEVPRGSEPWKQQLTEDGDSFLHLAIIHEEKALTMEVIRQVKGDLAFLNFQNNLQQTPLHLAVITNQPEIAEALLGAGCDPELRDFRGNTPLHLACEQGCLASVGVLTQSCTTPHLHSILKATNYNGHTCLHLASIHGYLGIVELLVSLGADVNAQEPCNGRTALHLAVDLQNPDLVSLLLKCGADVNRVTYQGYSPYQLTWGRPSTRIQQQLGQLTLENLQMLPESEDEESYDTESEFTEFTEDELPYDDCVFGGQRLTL

Molecular target: endogenous RCAN1 (human (endogenous in HEK293)) (UniProt P53805)
Assay: co-IP; untransfected HEK293 cells, endogenous proteins; DCT3 antibody against the RCAN1 C terminus as pull-down antibody, anti-IκBα as detection antibody (Figure 6c)

For “inhibitor of κBα (IκBα), endogenous (from UniProt P25963 1-317)”, which binding is on record?
Its binding is “binds”.
